{"source": "PubChem BioAssay AID504774 | Drosophila RNAi Screening Center – 2011", "assay": "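Genes required for cells to withstand methyl methanesulphonate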 (primary screen)", "cells": "Drosophila Kc167 cells", "knock-down reagent": "long dsRNA against Drosophila genes, about 0.25 µg dsRNA per well", "time to read-out": "about 6 days: 3 days knock-down, then 3 days with or without MMS", "treatment": "methyl methanesulphonate 0.004% (w/v) for 3 days after knock-down", "measurement": "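Viability in wells given MMS, read as ATP luminescence, normalised by quantiles plate by plate and averaged across replicates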", "scale": "mean viability with MMS and viability with MMS: higher = more surviving cells after MMS", "note": "The screen tested about 23,000 reagents; shown is a random part of those with a known target gene and a result. 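Values are quantile-normalised luminescence on an arbitrary scale; higher means more cells surviving MMS.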 Reagents against one gene are numbered here. Further read-outs or replicates are left out here."}
{"gene knocked down": "Faa", "reagent no.": 1, "mean viability with MMS": 3.62e6, "viability with MMS, replicate 1": 4.16e6}
{"gene knocked down": "CG10064", "reagent no.": 1, "mean viability with MMS": 3.47e6, "viability with MMS, replicate 1": 4.01e6}
{"gene knocked down": "rin", "reagent no.": 1, "mean viability with MMS": 3.32e6, "viability with MMS, replicate 1": 3.81e6}
{"gene knocked down": "rin", "reagent no.": 2, "mean viability with MMS": 3.40e6, "viability with MMS, replicate 1": 3.69e6}
{"gene knocked down": "X11Lbeta", "reagent no.": 1, "mean viability with MMS": 3.42e6, "viability with MMS, replicate 1": 3.90e6}
{"gene knocked down": "X11Lbeta", "reagent no.": 2, "mean viability with MMS": 3.56e6, "viability with MMS, replicate 1": 4.06e6}
{"gene knocked down": "CG13601", "reagent no.": 1, "mean viability with MMS": 3.26e6, "viability with MMS, replicate 1": 3.71e6}
{"gene knocked down": "CG6659", "reagent no.": 1, "mean viability with MMS": 3.64e6, "viability with MMS, replicate 1": 4.24e6}

Part of the list above, limited to “viability with MMS, replicate 1”:
X11Lbeta #2: 4.06e6
CG13601: 3.71e6

The results go on:
{"gene knocked down": "Rab10", "reagent no.": 1, "mean viability with MMS": 3.83e6, "viability with MMS, replicate 1": 4.27e6}
{"gene knocked down": "thetaTry", "reagent no.": 1, "mean viability with MMS": 3.78e6, "viability with MMS, replicate 1": 4.29e6}
{"gene knocked down": "CG11975", "reagent no.": 1, "mean viability with MMS": 3.56e6, "viability with MMS, replicate 1": 3.96e6}
{"gene knocked down": "gd", "reagent no.": 1, "mean viability with MMS": 3.44e6, "viability with MMS, replicate 1": 3.91e6}
{"gene knocked down": "Ptr", "reagent no.": 1, "mean viability with MMS": 3.41e6, "viability with MMS, replicate 1": 3.78e6}
{"gene knocked down": "Ptr", "reagent no.": 2, "mean viability with MMS": 3.63e6, "viability with MMS, replicate 1": 4.15e6}
